From patent US9868763B2, “Modulators of protease activated receptors” (The University of Queensland, priority 2011, dated 2018)
Some entries share one result that the patent states for a list of compounds.

experiment: Stability in rat plasma; type: in vitro ADME, Wistar rat; conditions: after 3 h, 37 °C, percent of peak area at time zero

SMILES | compound present in rat plasma
CO[C@H](C)[C@@H](NC(=O)[C@H](CC1CCCCC1)NC(=O)c1ccno1)C(=O)N1CCC2(C=Cc3ccccc32)CC1 [Compound 44, 5-isoxazoyl-Cha-Thr(Me)-spiro[indene-1,4′-piperidine]] | over 80%
CC[C@H](C)[C@@H](NC(=O)[C@H](CC1CCCCC1)NC(=O)c1cc(N)no1)C(=O)N1CCC2(C=Cc3ccccc32)CC1 [Compound 42, 5-(3-amino-isoxazoyl)-Cha-Ile-spiro[indene-1,4′-piperidine]] | over 80%
CC[C@H](C)[C@H](NC(=O)[C@H](CC1CCCCC1)NC(=O)c1ccno1)C(=O)NCc1ccccc1OC [Compound 18, 5-isoxazoyl-Cha-Ile-aminomethyl-(2-methoxy)phenyl] | over 80%
CC[C@H](C)[C@H](NC(=O)[C@H](CC1CCCCC1)NC(=O)c1ccno1)C(=O)N1CCC(c2ccccc2)CC1 [Compound 30, 5-isoxazoyl-Cha-Ile-(4-phenyl)piperidine] | over 80%
